Measurements: article PMC12669712
No constants are given. Whether binding was seen depends on the method and setting. In cells and extracts the contact can be indirect. Some entries that bind do so weakly or less than the wild type. For some of these results: Sequences can lack the tags named with a protein.

Sequences of proteins named here, by UniProt entry; tags and fusion partners are left off.
UniProt P46937: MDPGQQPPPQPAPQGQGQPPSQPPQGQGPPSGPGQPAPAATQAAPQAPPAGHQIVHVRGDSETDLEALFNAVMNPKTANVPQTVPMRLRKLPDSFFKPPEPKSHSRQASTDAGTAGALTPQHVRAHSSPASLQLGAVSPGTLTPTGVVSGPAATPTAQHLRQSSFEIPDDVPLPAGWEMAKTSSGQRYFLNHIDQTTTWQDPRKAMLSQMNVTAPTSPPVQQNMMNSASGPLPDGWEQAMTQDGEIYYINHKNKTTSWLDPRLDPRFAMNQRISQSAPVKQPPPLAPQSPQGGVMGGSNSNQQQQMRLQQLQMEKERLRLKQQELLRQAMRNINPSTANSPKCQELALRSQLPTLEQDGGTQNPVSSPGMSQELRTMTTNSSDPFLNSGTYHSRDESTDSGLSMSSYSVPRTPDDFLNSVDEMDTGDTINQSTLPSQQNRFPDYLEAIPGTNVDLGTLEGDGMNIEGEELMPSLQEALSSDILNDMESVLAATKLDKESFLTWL
UniProt P46938: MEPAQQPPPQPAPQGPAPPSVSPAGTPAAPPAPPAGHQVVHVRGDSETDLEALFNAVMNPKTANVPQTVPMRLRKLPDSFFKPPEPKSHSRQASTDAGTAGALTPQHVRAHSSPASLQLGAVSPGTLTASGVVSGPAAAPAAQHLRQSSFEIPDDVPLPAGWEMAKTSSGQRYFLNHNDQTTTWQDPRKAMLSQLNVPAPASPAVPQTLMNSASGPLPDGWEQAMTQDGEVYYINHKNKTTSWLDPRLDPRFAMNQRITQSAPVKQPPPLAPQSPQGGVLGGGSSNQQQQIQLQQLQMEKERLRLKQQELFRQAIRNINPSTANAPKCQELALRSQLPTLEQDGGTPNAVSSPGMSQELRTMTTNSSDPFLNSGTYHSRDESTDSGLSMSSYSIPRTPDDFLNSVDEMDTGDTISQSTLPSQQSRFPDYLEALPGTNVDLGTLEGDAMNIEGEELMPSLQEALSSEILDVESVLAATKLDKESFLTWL

Experiments:
[1] = target: T1, MST1, endogenous in MEFs (mouse (endogenous in MEFs)) (UniProt Q9JI11); assay: co-IP; KSR1+/+ MEF lysates in Buffer A; protein A-Sepharose with anti-MST1, anti-LATS1 or anti-YAP antibodies, 3 h at 4 °C; rabbit IgG as control; in Fig. 8 cells serum-starved for 16 h, then EGF or vehicle for 5 min
T1 sequence: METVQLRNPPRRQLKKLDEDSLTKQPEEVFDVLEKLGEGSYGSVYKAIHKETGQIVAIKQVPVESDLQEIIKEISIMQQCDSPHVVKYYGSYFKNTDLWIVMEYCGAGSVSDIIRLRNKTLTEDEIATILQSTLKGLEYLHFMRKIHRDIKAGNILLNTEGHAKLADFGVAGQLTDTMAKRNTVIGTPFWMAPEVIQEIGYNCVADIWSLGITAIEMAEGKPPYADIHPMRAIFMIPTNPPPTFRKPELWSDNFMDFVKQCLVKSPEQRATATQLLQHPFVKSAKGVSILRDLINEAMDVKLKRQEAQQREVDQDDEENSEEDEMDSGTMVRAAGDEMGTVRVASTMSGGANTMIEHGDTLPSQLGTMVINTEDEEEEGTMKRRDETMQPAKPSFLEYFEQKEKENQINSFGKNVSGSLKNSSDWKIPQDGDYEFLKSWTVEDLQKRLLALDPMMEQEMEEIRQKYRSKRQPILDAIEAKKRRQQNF

[2] = target: T2, Glutathione S-transferase (GST)-tagged MST1 (UniProt Q13043); assay: pull-down; TNT-made KSR1 incubated with glutathione-Sepharose beads coated with the GST protein for 3 h at 4 °C in Buffer A (150 mM NaCl, 50 mM Tris-HCl, pH 7.4, 1% Triton X-100); five washes; Western blot with anti-KSR1 and anti-GST; only the target purified
T2 sequence: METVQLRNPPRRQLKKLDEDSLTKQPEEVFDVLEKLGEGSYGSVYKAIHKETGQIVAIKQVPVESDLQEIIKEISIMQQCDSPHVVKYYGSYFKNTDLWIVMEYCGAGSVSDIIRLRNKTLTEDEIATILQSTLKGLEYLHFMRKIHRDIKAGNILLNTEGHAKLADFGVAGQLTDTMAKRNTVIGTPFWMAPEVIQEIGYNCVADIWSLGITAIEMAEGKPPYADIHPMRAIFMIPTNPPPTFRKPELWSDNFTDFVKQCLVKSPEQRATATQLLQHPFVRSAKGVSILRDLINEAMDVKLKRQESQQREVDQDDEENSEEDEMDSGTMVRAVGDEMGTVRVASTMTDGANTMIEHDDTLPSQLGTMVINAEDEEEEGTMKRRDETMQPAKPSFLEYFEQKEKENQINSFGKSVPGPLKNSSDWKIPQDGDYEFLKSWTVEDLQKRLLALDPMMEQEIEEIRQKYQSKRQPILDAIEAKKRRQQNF

[3] = target: YAP, endogenous in HEK293T cells (human (endogenous in HEK293T)) (UniProt P46937); assay: co-IP; HEK293T cells transfected with GFP-tagged KSR1 or GFP alone for 72 h; lysates immunoprecipitated with anti-YAP antibodies or rabbit IgG
[4] = target: T3, MST1, endogenous in MCF-7 cells (human (endogenous in MCF-7)) (UniProt Q13043); assay: co-IP; MCF-7 lysates, endogenous proteins; immunoprecipitation of MST1; non-specific IgG as control
T3 sequence: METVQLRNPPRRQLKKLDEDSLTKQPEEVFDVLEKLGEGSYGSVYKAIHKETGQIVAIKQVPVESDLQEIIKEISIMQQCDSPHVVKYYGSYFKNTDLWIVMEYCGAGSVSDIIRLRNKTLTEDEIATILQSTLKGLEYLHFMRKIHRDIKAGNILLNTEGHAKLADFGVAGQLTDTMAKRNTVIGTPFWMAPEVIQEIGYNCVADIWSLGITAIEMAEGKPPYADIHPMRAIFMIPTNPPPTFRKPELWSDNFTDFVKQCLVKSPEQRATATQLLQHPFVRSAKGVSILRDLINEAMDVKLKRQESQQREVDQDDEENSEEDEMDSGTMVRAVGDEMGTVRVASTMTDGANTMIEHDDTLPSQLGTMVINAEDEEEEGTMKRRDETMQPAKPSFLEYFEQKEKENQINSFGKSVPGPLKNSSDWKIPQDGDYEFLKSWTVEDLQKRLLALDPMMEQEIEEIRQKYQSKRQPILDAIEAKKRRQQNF

## YAP, endogenous in MEFs (from UniProt P46938 1-488)
[1]
  binding: binds

B1: Kinase Suppressor of Ras 1 (KSR1), produced by in vitro transcription and translation (TNT) (protein, UniProt Q8IVT5 1-923)
chain: MDRAALRAAAMGEKKEGGGGGDAAAAEGGAGAAASRALQQCGQLQKLIDISIGSLRGLRTKCAVSNDLTQQEIRTLEAKLVRYICKQRQCKLSVAPGERTPELNSYPRFSDWLYTFNVRPEVVQEIPRDLTLDALLEMNEAKVKETLRRCGASGDECGRLQYALTCLRKVTGLGGEHKEDSSWSSLDARRESGSGPSTDTLSAASLPWPPGSSQLGRAGNSAQGPRSISVSALPASDSPTPSFSEGLSDTCIPLHASGRLTPRALHSFITPPTTPQLRRHTKLKPPRTPPPPSRKVFQLLPSFPTLTRSKSHESQLGNRIDDVSSMRFDLSHGSPQMVRRDIGLSVTHRFSTKSWLSQVCHVCQKSMIFGVKCKHCRLKCHNKCTKEAPACRISFLPLTRLRRTESVPSDINNPVDRAAEPHFGTLPKALTKKEHPPAMNHLDSSSNPSSTTSSTPSSPAPFPTSSNPSSATTPPNPSPGQRDSRFNFPAAYFIHHRQQFIFPVPSAGHCWKCLLIAESLKENAFNISAFAHAAPLPEAADGTRLDDQPKADVLEAHEAEAEEPEAGKSEAEDDEDEVDDLPSSRRPWRGPISRKASQTSVYLQEWDIPFEQVELGEPIGQGRWGRVHRGRWHGEVAIRLLEMDGHNQDHLKLFKKEVMNYRQTRHENVVLFMGACMNPPHLAIITSFCKGRTLHSFVRDPKTSLDINKTRQIAQEIIKGMGYLHAKGIVHKDLKSKNVFYDNGKVVITDFGLFGISGVVREGRRENQLKLSHDWLCYLAPEIVREMTPGKDEDQLPFSKAADVYAFGTVWYELQARDWPLKNQAAEASIWQIGSGEGMKRVLTSVSLGKEVSEILSACWAFDLQERPSFSLLMDMLEKLPKLNRRLSHPGHFWKSADINSSKVVPRFERFGLGVLESSNPKM
[2]
  binding: binds

B2: GFP-tagged full-length KSR1 (protein, UniProt Q8IVT5 1-923)
chain: MDRAALRAAAMGEKKEGGGGGDAAAAEGGAGAAASRALQQCGQLQKLIDISIGSLRGLRTKCAVSNDLTQQEIRTLEAKLVRYICKQRQCKLSVAPGERTPELNSYPRFSDWLYTFNVRPEVVQEIPRDLTLDALLEMNEAKVKETLRRCGASGDECGRLQYALTCLRKVTGLGGEHKEDSSWSSLDARRESGSGPSTDTLSAASLPWPPGSSQLGRAGNSAQGPRSISVSALPASDSPTPSFSEGLSDTCIPLHASGRLTPRALHSFITPPTTPQLRRHTKLKPPRTPPPPSRKVFQLLPSFPTLTRSKSHESQLGNRIDDVSSMRFDLSHGSPQMVRRDIGLSVTHRFSTKSWLSQVCHVCQKSMIFGVKCKHCRLKCHNKCTKEAPACRISFLPLTRLRRTESVPSDINNPVDRAAEPHFGTLPKALTKKEHPPAMNHLDSSSNPSSTTSSTPSSPAPFPTSSNPSSATTPPNPSPGQRDSRFNFPAAYFIHHRQQFIFPVPSAGHCWKCLLIAESLKENAFNISAFAHAAPLPEAADGTRLDDQPKADVLEAHEAEAEEPEAGKSEAEDDEDEVDDLPSSRRPWRGPISRKASQTSVYLQEWDIPFEQVELGEPIGQGRWGRVHRGRWHGEVAIRLLEMDGHNQDHLKLFKKEVMNYRQTRHENVVLFMGACMNPPHLAIITSFCKGRTLHSFVRDPKTSLDINKTRQIAQEIIKGMGYLHAKGIVHKDLKSKNVFYDNGKVVITDFGLFGISGVVREGRRENQLKLSHDWLCYLAPEIVREMTPGKDEDQLPFSKAADVYAFGTVWYELQARDWPLKNQAAEASIWQIGSGEGMKRVLTSVSLGKEVSEILSACWAFDLQERPSFSLLMDMLEKLPKLNRRLSHPGHFWKSADINSSKVVPRFERFGLGVLESSNPKM
[3]
  binding: binds

B3: KSR1, endogenous in MCF-7 cells (protein, UniProt Q8IVT5 1-923)
chain: MDRAALRAAAMGEKKEGGGGGDAAAAEGGAGAAASRALQQCGQLQKLIDISIGSLRGLRTKCAVSNDLTQQEIRTLEAKLVRYICKQRQCKLSVAPGERTPELNSYPRFSDWLYTFNVRPEVVQEIPRDLTLDALLEMNEAKVKETLRRCGASGDECGRLQYALTCLRKVTGLGGEHKEDSSWSSLDARRESGSGPSTDTLSAASLPWPPGSSQLGRAGNSAQGPRSISVSALPASDSPTPSFSEGLSDTCIPLHASGRLTPRALHSFITPPTTPQLRRHTKLKPPRTPPPPSRKVFQLLPSFPTLTRSKSHESQLGNRIDDVSSMRFDLSHGSPQMVRRDIGLSVTHRFSTKSWLSQVCHVCQKSMIFGVKCKHCRLKCHNKCTKEAPACRISFLPLTRLRRTESVPSDINNPVDRAAEPHFGTLPKALTKKEHPPAMNHLDSSSNPSSTTSSTPSSPAPFPTSSNPSSATTPPNPSPGQRDSRFNFPAAYFIHHRQQFIFPVPSAGHCWKCLLIAESLKENAFNISAFAHAAPLPEAADGTRLDDQPKADVLEAHEAEAEEPEAGKSEAEDDEDEVDDLPSSRRPWRGPISRKASQTSVYLQEWDIPFEQVELGEPIGQGRWGRVHRGRWHGEVAIRLLEMDGHNQDHLKLFKKEVMNYRQTRHENVVLFMGACMNPPHLAIITSFCKGRTLHSFVRDPKTSLDINKTRQIAQEIIKGMGYLHAKGIVHKDLKSKNVFYDNGKVVITDFGLFGISGVVREGRRENQLKLSHDWLCYLAPEIVREMTPGKDEDQLPFSKAADVYAFGTVWYELQARDWPLKNQAAEASIWQIGSGEGMKRVLTSVSLGKEVSEILSACWAFDLQERPSFSLLMDMLEKLPKLNRRLSHPGHFWKSADINSSKVVPRFERFGLGVLESSNPKM
[4]
  binding: binds
